Reference: PubChem BioAssay AID504467 (National Center for Advancing Translational Sciences (NCATS), 2011)
The campaign covered roughly 330,000 compounds. About 7,700 (2.3%) were called active. Inconclusive results, whose numbers are uncertain, are shown with a selection of clear calls. Calls come from the whole dose curve; as a rule, active = well fitted inhibition curve with a large enough effect; inconclusive = small, poorly fitted or top-dose-only effect, or effect the other way; inactive = flat fitted curve, though single readings scatter. A potency beside an inconclusive call is a rough fit, not a confirmed value.

Experiment: qHTS screen for small molecules that inhibit ELG1-dependent DNA repair in human embryonic kidney (HEK293T) cells expressing luciferase-tagged ELG1; note: nearly all actives have a fitted effect of over 55% in size
Conditions: HEK293T ELG1-luciferase reporter, luminescence, 16 h, DNA damage induced by 5-fluorouridine; series mostly up to 46.1 µM
Procedure, shortened: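 Quantitative HTS, concentration-response format. 2,000 cells/well co-treated with 5-fluorouridine and compound, 16 hr in 5% CO2 at 37 °C; ONE-Glo luminescence read after 30 min.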
Potency is the fitted concentration of half-maximal effect.

| SMILES | Potency |
| --- | --- |
| COc1ccc(C(=O)COc2ccc(F)cc2)c(O)c1C | inconclusive: 23.1 µM [activator, partial curve, poor fit] |
| O=C(CSc1nnnn1-c1ccccc1)Nc1ncc2c(n1)CC(c1ccco1)CC2=O (stereo not drawn) | inconclusive: 25.9 µM [inhibitor, single point] |
| CCOC(=O)c1cc(-c2ccc(OC)cc2)n(CCC(=O)NC2CCN(Cc3ccccc3)CC2)c1C | inconclusive: 29.1 µM [inhibitor, single point] |
| CN(CC(=O)NCCc1ccc(Cl)cc1)S(=O)(=O)c1ccc2c(c1)c(=O)n(C)c(=O)n2C | inconclusive: 23.1 µM [inhibitor, single point] |
| COc1nccnc1NS(=O)(=O)c1ccc(NS(=O)(=O)c2ccc(NC(C)=O)cc2)cc1 | inconclusive: 29.1 µM [activator, single point] |
| O=C(N/N=C/c1c[nH]c2ccccc12)c1cc(-c2ccc(-c3ccccc3)cc2)n[nH]1 | inconclusive: 1.84 µM [activator, partial curve] |
| O=C(Oc1cccc2ccccc12)c1cc(Cl)nc2ccccc12 | inactive |
| COc1cc(C(=O)NCCc2nc3ccccc3n2C)cc(OC)c1OC | inconclusive: 18.4 µM [inhibitor, single point] |
| CNC(=O)c1ccc2nc(NC(C)=O)sc2c1 | inconclusive: 16.4 µM [activator, partial curve] |
| COC(=O)c1c(NC(=O)CSc2nccn2C)sc(C)c1C | inactive |
| CC1CC(C)CN(CCCNC(=O)C2CCCN(c3ncnc4c3nc3n4CCCCC3)C2)C1 (stereo not drawn) | inactive |
| COc1ccc(C(=O)Nc2ccccc2-c2nnn(CC(=O)NCc3ccco3)n2)cc1 | inconclusive: 18.4 µM [activator, single point] |
| O=C1CN(C(=O)COC(=O)CCc2ccccc2O)c2ccccc2N1 | inactive |
| CCOC(=O)c1sc2ccccc2c1OC(=O)c1ccc(C)cc1 | inconclusive: 7.31 µM [inhibitor, partial curve] |
| CCN1C(=O)[C@H]2[C@H]3CN=C(SCC(=O)c4ccccc4)N3[C@@](CC)(C(=O)OC)[C@H]2C1=O | inconclusive: 29.1 µM [activator, partial curve, poor fit] |
| Cc1ccc(-c2nn(-c3ccc(F)cc3)cc2C(=O)N(C)CC(=O)Nc2ccc(N3CCOCC3)cc2)cc1 | inconclusive: 2.31 µM [inhibitor, partial curve] |
| S=C(NCc1cccnc1)Nc1ccc(Oc2ccccc2)cc1 | inconclusive: 14.6 µM [inhibitor, partial curve, poor fit] |
| Cn1c(CC(=O)c2ccc(Br)cc2)[n+](C)c2ccccc21 | inconclusive: 6.51 µM [inhibitor, partial curve, poor fit] |
| Cc1cc(N2CCOCC2)nc2ccc(NC(=O)CCC(=O)N3CCN(c4cccc(C(F)(F)F)c4)CC3)cc12 | inconclusive: 18.3 µM [inhibitor, single point] |
| CCNc1nc(NCC)n2c(SC(C(=O)Nc3cc(C)ccc3OC)c3ccccc3)nnc2n1 (stereo not drawn) | active: 23.1 µM |
| O=C(COC(=O)C1(c2ccccc2F)CCCC1)N1CCc2ccccc21 | inconclusive: 29.1 µM [activator, single point] |
| Cc1oc(C(=O)O)cc1COc1ccc2c3c(c(=O)oc2c1C)CCCC3 | inactive |
| O=C1C2C3CCCC3=C3CCCC3C2C(=O)N1c1ccc(F)cc1 (stereo not drawn) | inactive |

Part of the list above, set out differently.
Cn1c(CC(=O)c2ccc(Br)cc2)[n+](C)c2ccccc21
  Potency: inconclusive: 6.51 µM [inhibitor, partial curve, poor fit]
Cc1cc(N2CCOCC2)nc2ccc(NC(=O)CCC(=O)N3CCN(c4cccc(C(F)(F)F)c4)CC3)cc12
  Potency: inconclusive: 18.3 µM [inhibitor, single point]

Further compounds:

| SMILES | Potency |
| --- | --- |
| CC(C)c1ccc(C(=O)NCCCNC(=O)c2cnccn2)cc1 | inconclusive: 13 µM [activator, single point] |
| CC12CCC(C(=O)Nc3cccc(Cl)c3Cl)([C@H](Br)C1=O)C2(C)C (stereo partly drawn) | inconclusive: 29.1 µM [inhibitor, single point] |
| O=C(COC(=O)C1CC(O)CN1S(=O)(=O)c1ccc(Cl)cc1)c1ccccc1 (stereo not drawn) | inactive |
| Cc1cc2cc(CCNC(=O)c3ccc(S(=O)(=O)N4CCCC4)cc3)c(=O)[nH]c2cc1C | inconclusive: 20.6 µM [inhibitor, single point] |
| O=C(Nc1cc(Cl)cc(Cl)c1)c1ccc(Cn2c(=O)[nH]c3ccsc3c2=O)cc1 | inconclusive: 11.6 µM [inhibitor, partial curve, poor fit] |
| CSCCC(=O)N1CCC(CCC(=O)NC2CC2)CC1 | inactive |
| O=C(Cn1nc(C(=O)O)c2ccccc2c1=O)Nc1cc(S(=O)(=O)N2CCOCC2)ccc1Cl | inactive |
| COc1cccc(-c2cc(C(F)(F)F)n3ncc(C(=O)NCC4CCCO4)c3n2)c1 (stereo not drawn) | active: 6.51 µM |
| O=C(CN1CCN(c2ccc(F)cc2)CC1)NC(=O)NCc1ccco1 | inactive |
| CCn1c2ccccc2c2cnc(N=CN(C)C)c(C#N)c21 | inconclusive: 7.31 µM [inhibitor, partial curve, poor fit] |
| Cc1nc(-c2cc(-c3nc(-c4ccc(C(C)(C)C)cc4)no3)no2)cs1 | inconclusive: 11.6 µM [inhibitor, single point] |
| CN(C)c1ccc(N2C(=NC(=O)c3ccccc3)SC3CS(=O)(=O)CC32)cc1 (stereo not drawn) | inactive |
| COc1cccc(Nc2nc(-c3ccc4c(c3)OCCO4)cs2)c1 | inconclusive: 3.66 µM [activator, full curve] |
| COc1cc(C(=O)NCCNc2nc3ccc(C)cc3cc2C#N)cc(OC)c1OC | active: 14.6 µM |
| Cc1nnc2c3ccccc3c(-c3cccs3)nn12 | inconclusive: 18.3 µM [activator, partial curve] |
| CCCCCCCn1c(NC(=O)CC)nc2ccccc21 | inconclusive: 2.91 µM [inhibitor, single point] |
| CC(=O)c1cccc(NC(=O)CN2C(=O)c3cccnc3Oc3ccc(Cl)cc32)c1 | inconclusive: 18.3 µM [inhibitor, single point] |
| O=[N+]([O-])c1cccc(/C=N/n2cnnc2)c1 | inactive |
| O=C(NC(=S)Nc1ccc2oc(-c3ccncc3)nc2c1)c1ccccc1F | inactive |
| CC(C)CCn1c(SCC(=O)N2CC(=O)Nc3ccccc32)nc2scc(-c3cccs3)c2c1=O | inactive |
| CCc1c(C(=O)Nc2nnc(C3CC3)s2)csc1C | inconclusive: 5.8 µM [activator, single point] |
| Cc1sc2nc(CSc3ccccc3)nc(N3CCOCC3)c2c1C | inactive |
| CCC(C)NC(=O)c1nc2c(nnn2Cc2ccccc2Cl)c(=O)[nH]1 (stereo not drawn) | inactive |

| SMILES | Potency |
| --- | --- |
| O=C(NC(=S)Nc1cnc2ccccc2c1)c1ccccc1 | inconclusive: 10.3 µM [activator, partial curve] |
| O=C1CCC(CCC(=O)N2CCCC(C(=O)c3ccc4c5c(cccc35)CC4)C2)=NN1 (stereo not drawn) | inconclusive: 32.6 µM [inhibitor, single point] |
| COc1c2ccc(C(=O)NCc3cc(C(F)(F)F)cc(C(F)(F)F)c3)cc2nn1C | inactive |
| COc1ccc(N2C(=NC(=O)CCC3CCCC3)SC3CS(=O)(=O)CC32)cc1 (stereo not drawn) | inconclusive: 18.3 µM [activator, partial curve, poor fit] |
| Cc1cc(Br)ccc1SCC(=O)Nc1cccnc1 | inconclusive: 18.3 µM [inhibitor, single point] |
| O=c1cc(-c2ccc(O)c(O)c2)oc2cc(O[C@@H]3O[C@H](CO)[C@@H](O)[C@H](O)[C@H]3O)cc(O)c12 | inconclusive: 11.6 µM [activator, partial curve] |
| O=C(NCCc1c[nH]c2ccccc12)C(=O)NCC1OCCN1S(=O)(=O)c1ccccc1 (stereo not drawn) | inactive |
| Cc1nc(Sc2ccccc2)c(C#N)c(C)c1[N+](=O)[O-] | inconclusive: 29.1 µM [activator, single point] |
| CN(C)S(=O)(=O)c1cccc(COc2ncnc3c(Cl)cc(Cl)cc23)c1 | active: 18.3 µM |
| O=C(N/N=C(\CC(=O)c1cccs1)C(F)(F)F)c1ccncc1 | inconclusive: 0.206 µM [inhibitor, full curve, poor fit] |
| CC(C)c1nc(N2CCN(C(=O)c3ccccc3)CC2)c(C#N)c2c1COC(C)(C)C2 | inconclusive: 18.4 µM [inhibitor, partial curve] |
| C=CC(COCc1ccccc1)N(C(=O)OC(C)(C)C)S(=O)(=O)c1ccccc1Br (stereo not drawn) | inactive |
| CCCc1ccc2oc(C(=O)NCCN3CCCC(O)C3)c(C)c2c1 (stereo not drawn) | inconclusive: 16.4 µM [activator, single point] |
| CC(CNC(=O)c1cc(COc2ccc3ncccc3c2)on1)c1ccccc1 (stereo not drawn) | active: 10.3 µM |
| COc1ccc(-c2c(C)cc3oc(=O)cc(-c4ccccc4)c3c2C)cc1OC | inactive |
| CC1=C(C(=O)Nc2ccccc2)C(c2ccc(C)o2)n2c(s/c(=C\c3ccco3)c2=O)=N1 (stereo not drawn) | inconclusive: 20.6 µM [inhibitor, partial curve] |
| Nc1nnc(-c2ccc(Cl)cc2Cl)s1 | inconclusive: 18.3 µM [activator, partial curve] |
| FC(F)(F)c1cccc(Nc2ncnc3ccccc23)c1 | inconclusive: 23.1 µM [inhibitor, partial curve] |
| Cc1ccc(C)c(Cn2cnc3c(oc4ccccc43)c2=O)c1 | inconclusive: 29.1 µM [inhibitor, partial curve, poor fit] |
| CC1(C)CC2CC(C)(CN2C(=O)c2cccs2)C1 (stereo not drawn) | inactive |
| CN(CC(=O)Nc1ccc(Cl)cc1)CC(=O)Nc1cc(Cl)ccc1C#N | inconclusive: 25.9 µM [inhibitor, single point] |
| COc1ccc(/C=C2/SC(=S)N(CC(=O)O)C2=O)cc1OCc1ccc(Cl)cc1 | inconclusive: 20.6 µM [activator, single point] |
